PMC7694386
These are yes or no findings as the source states them, for the method shown. Binding seen in cells or lysates may run through a third protein. A yes stands for co-enrichment or nearness to the bait. Other partners may have been found. Tags and fused reporters may be left off the sequences shown.

The chains behind the UniProt entries cited, without tags or fusion partners.
UniProt O95817: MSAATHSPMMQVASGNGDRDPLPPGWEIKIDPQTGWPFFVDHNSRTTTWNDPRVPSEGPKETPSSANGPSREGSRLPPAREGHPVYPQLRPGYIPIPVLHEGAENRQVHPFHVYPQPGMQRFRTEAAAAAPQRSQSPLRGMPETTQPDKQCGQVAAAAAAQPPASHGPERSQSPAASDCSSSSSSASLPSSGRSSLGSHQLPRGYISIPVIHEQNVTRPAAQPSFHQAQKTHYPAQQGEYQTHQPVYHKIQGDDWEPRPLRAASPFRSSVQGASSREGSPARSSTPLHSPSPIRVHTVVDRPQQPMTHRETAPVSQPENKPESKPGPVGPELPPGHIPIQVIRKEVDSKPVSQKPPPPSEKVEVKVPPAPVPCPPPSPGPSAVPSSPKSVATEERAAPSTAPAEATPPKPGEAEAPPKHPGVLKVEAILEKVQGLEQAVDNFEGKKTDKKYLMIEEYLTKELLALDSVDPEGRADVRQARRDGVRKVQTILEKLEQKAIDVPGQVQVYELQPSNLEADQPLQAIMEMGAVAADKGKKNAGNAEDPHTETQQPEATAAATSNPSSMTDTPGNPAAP

B1: BYSL (protein, UniProt Q13895 1-437)
chain: MPKFKAARGVGGQEKHAPLADQILAGNAVRAGVREKRRGRGTGEAEEEYVGPRLSRRILQQARQQQEELEAEHGTGDKPAAPRERTTRLGPRMPQDGSDDEDEEWPTLEKAATMTAAGHHAEVVVDPEDERAIEMFMNKNPPARRTLADIIMEKLTEKQTEVETVMSEVSGFPMPQLDPRVLEVYRGVREVLSKYRSGKLPKAFKIIPALSNWEQILYVTEPEAWTAAAMYQATRIFASNLKERMAQRFYNLVLLPRVRDDVAEYKRLNFHLYMALKKALFKPGAWFKGILIPLCESGTCTLREAIIVGSIITKCSIPVLHSSAAMLKIAEMEYSGANSIFLRLLLDKKYALPYRVLDALVFHFLGFRTEKRELPVLWHQCLLTLVQRYKADLATDQKEALLELLRLQPHPQLSPEIRRELQSAVPRDVEDVPITVE
B2: TSR1 (protein, UniProt Q2NL82 1-804)
chain: MAAHRPGPLKQQNKAHKGGRHRGRGSAQRDGKGRLALKTLSKKVRKELSRVDQRHRASQLRKQKKEAVLAEKRQLGGKDGPPHQVLVVPLHSRISLPEAMQLLQDRDTGTVHLNELGNTQNFMLLCPRLKHRWFFTSARPGDLHVVLDMAKVADTILFLLDPLEGWDSTGDYCLSCLFAQGLPTYTLAVQGISGLPLKKQIDTRKKLSKAVEKRFPHDKLLLLDTQQEAGMLLRQLANQKQQHLAFRDRRAYLFAHAVDFVPSEENNLVGTLKISGYVRGQTLNVNRLLHIVGYGDFQMKQIDAPGDPFPLNPRGIKPQKDPDMAMEICATDAVDDMEEGLKVLMKADPGRQESLQAEVIPDPMEGEQTWPTEEELSEAKDFLKESSKVVKKVPKGTSSYQAEWILDGGSQSGGEGDEYEYDDMEHEDFMEEESQDESSEEEEEYETMTIGESVHDDLYDKKVDEEAEAKMLEKYKQERLEEMFPDEVDTPRDVAARIRFQKYRGLKSFRTSPWDPKENLPQDYARIFQFQNFTNTRKSIFKEVEEKEVEGAEVGWYVTLHVSEVPVSVVECFRQGTPLIAFSLLPHEQKMSVLNMVVRRDPGNTEPVKAKEELIFHCGFRRFRASPLFSQHTAADKHKLQRFLTADMALVATVYAPITFPPASVLLFKQKSNGMHSLIATGHLMSVDPDRMVIKRVVLSGHPFKIFTKMAVVRYMFFNREDVLWFKPVELRTKWGRRGHIKEPLGTHGHMKCSFDGKLKSQDTVLMNLYKRVFPKWTYDPYVPEPVPWLKSEISSTVPQGGME
B3: HNRNPL (protein, UniProt P14866 1-589)
chain: MSRRLLPRAEKRRRRLEQRQQPDEQRRRSGAMVKMAAAGGGGGGGRYYGGGSEGGRAPKRLKTDNAGDQHGGGGGGGGGAGAAGGGGGGENYDDPHKTPASPVVHIRGLIDGVVEADLVEALQEFGPISYVVVMPKKRQALVEFEDVLGACNAVNYAADNQIYIAGHPAFVNYSTSQKISRPGDSDDSRSVNSVLLFTILNPIYSITTDVLYTICNPCGPVQRIVIFRKNGVQAMVEFDSVQSAQRAKASLNGADIYSGCCTLKIEYAKPTRLNVFKNDQDTWDYTNPNLSGQGDPGSNPNKRQRQPPLLGDHPAEYGGPHGGYHSHYHDEGYGPPPPHYEGRRMGPPVGGHRRGPSRYGPQYGHPPPPPPPPEYGPHADSPVLMVYGLDQSKMNCDRVFNVFCLYGNVEKVKFMKSKPGAAMVEMADGYAVDRAITHLNNNFMFGQKLNVCVSKQPAIMPGQSYGLEDGSCSYKDFSESRNNRFSTPEQAAKNRIQHPSNVLHFFNAPLEVTEENFFEICDELGVKRPSSVKVFSGKSERSSSGLLEWESKSDALETLGFLNHYQMKNPNGPYPYTLKLCFSTAQHAS
B4: SRSF6 (protein, UniProt Q13247 1-344)
chain: MPRVYIGRLSYNVREKDIQRFFSGYGRLLEVDLKNGYGFVEFEDSRDADDAVYELNGKELCGERVIVEHARGPRRDRDGYSYGSRSGGGGYSSRRTSGRDKYGPPVRTEYRLIVENLSSRCSWQDLKDFMRQAGEVTYADAHKERTNEGVIEFRSYSDMKRALDKLDGTEINGRNIRLIEDKPRTSHRRSYSGSRSRSRSRRRSRSRSRRSSRSRSRSISKSRSRSRSRSKGRSRSRSKGRKSRSKSKSKPKSDRGSHSHSRSRSKDEYEKSRSRSRSRSPKENGKGDIKSKSRSRSQSRSNSPLPVPPSKARSVSPPPKRATSRSRSRSRSKSRSRSRSSSRD
B5: CPSF7 (protein, UniProt Q8N684 1-471)
chain: MSEGVDLIDIYADEEFNQDPEFNNTDQIDLYDDVLTATSQPSDDRSSSTEPPPPVRQEPSPKPNNKTPAILYTYSGLRNRRAAVYVGSFSWWTTDQQLIQVIRSIGVYDVVELKFAENRANGQSKGYAEVVVASENSVHKLLELLPGKVLNGEKVDVRPATRQNLSQFEAQARKRECVRVPRGGIPPRAHSRDSSDSADGRATPSENLVPSSARVDKPPSVLPYFNRPPSALPLMGLPPPPIPPPPPLSSSFGVPPPPPGIHYQHLMPPPPRLPPHLAVPPPGAIPPALHLNPAFFPPPNATVGPPPDTYMKASAPYNHHGSRDSGPPPSTVSEAEFEDIMKRNRAISSSAISKAVSGASAGDYSDAIETLLTAIAVIKQSRVANDERCRVLISSLKDCLHGIEAKSYSVGASGSSSRKRHRSRERSPSRSRESSRRHRDLLHNEDRHDDYFQERNREHERHRDRERDRHH
B6: RBFOX2 (protein, UniProt O43251 1-390)
chain: MQNEPLTPGYHGFPARDSQGNQEPTTTPDAMVQPFTTIPFPPPPQNGIPTEYGVPHTQDYAGQTGEHNLTLYGSTQAHGEQSSNSPSTQNGSLTTEGGAQTDGQQSQTQSSENSESKSTPKRLHVSNIPFRFRDPDLRQMFGQFGKILDVEIIFNERGSKGFGFVTFENSADADRAREKLHGTVVEGRKIEVNNATARVMTNKKMVTPYANGWKLSPVVGAVYGPELYAASSFQADVSLGNDAAVPLSGRGGINTYIPLISLPLVPGFPYPTAATTAAAFRGAHLRGRGRTVYGAVRAVPPTAIPAYPGVVYQDGFYGADLYGGYAAYRYAQPATATAATAAAAAAAAYSDGYGRVYTADPYHALAPAASYGVGAVASLYRGGYSRFAPY
B7: Putative RNA-binding protein Luc7-like 2 (protein, UniProt Q9Y383 1-392)
chain: MSAQAQMRAMLDQLMGTSRDGDTTRQRIKFSDDRVCKSHLLNCCPHDVLSGTRMDLGECLKVHDLALRADYEIASKEQDFFFELDAMDHLQSFIADCDRRTEVAKKRLAETQEEISAEVAAKAERVHELNEEIGKLLAKVEQLGAEGNVEESQKVMDEVEKARAKKREAEEVYRNSMPASSFQQQKLRVCEVCSAYLGLHDNDRRLADHFGGKLHLGFIEIREKLEELKRVVAEKQEKRNQERLKRREEREREEREKLRRSRSHSKNPKRSRSREHRRHRSRSMSRERKRRTRSKSREKRHRHRSRSSSRSRSRSHQRSRHSSRDRSRERSKRRSSKERFRDQDLASCDRDRSSRDRSPRDRDRKDKKRSYESANGRSEDRRSSEEREAGEI
B8: intron-binding spliceosomal protein AQR (protein, UniProt O60306 1-1485)
chain: MAAPAQPKKIVAPTVSQINAEFVTQLACKYWAPHIKKKSPFDIKVIEDIYEKEIVKSRFAIRKIMLLEFSQYLENYLWMNYSPEVSSKAYLMSICCMVNEKFRENVPAWEIFKKKPDHFPFFFKHILKAALAETDGEFSLHEQTVLLLFLDHCFNSLEVDLIRSQVQQLISLPMWMGLQLARLELELKKTPKLRKFWNLIKKNDEKMDPEAREQAYQERRFLSQLIQKFISVLKSVPLSEPVTMDKVHYCERFIELMIDLEALLPTRRWFNTILDDSHLLVHCYLSNLVRREEDGHLFSQLLDMLKFYTGFEINDQTGNALTENEMTTIHYDRITSLQRAAFAHFPELYDFALSNVAEVDTRESLVKFFGPLSSNTLHQVASYLCLLPTLPKNEDTTFDKEFLLELLVSRHERRISQIQQLNQMPLYPTEKIIWDENIVPTEYYSGEGCLALPKLNLQFLTLHDYLLRNFNLFRLESTYEIRQDIEDSVSRMKPWQSEYGGVVFGGWARMAQPIVAFTVVEVAKPNIGENWPTRVRADVTINLNVRDHIKDEWEGLRKHDVCFLITVRPTKPYGTKFDRRRPFIEQVGLVYVRGCEIQGMLDDKGRVIEDGPEPRPNLRGESRTFRVFLDPNQYQQDMTNTIQNGAEDVYETFNIIMRRKPKENNFKAVLETIRNLMNTDCVVPDWLHDIILGYGDPSSAHYSKMPNQIATLDFNDTFLSIEHLKASFPGHNVKVTVEDPALQIPPFRITFPVRSGKGKKRKDADVEDEDTEEAKTLIVEPHVIPNRGPYPYNQPKRNTIQFTHTQIEAIRAGMQPGLTMVVGPPGTGKTDVAVQIISNIYHNFPEQRTLIVTHSNQALNQLFEKIMALDIDERHLLRLGHGEEELETEKDFSRYGRVNYVLARRIELLEEVKRLQKSLGVPGDASYTCETAGYFFLYQVMSRWEEYISKVKNKGSTLPDVTEVSTFFPFHEYFANAPQPIFKGRSYEEDMEIAEGCFRHIKKIFTQLEEFRASELLRSGLDRSKYLLVKEAKIIAMTCTHAALKRHDLVKLGFKYDNILMEEAAQILEIETFIPLLLQNPQDGFSRLKRWIMIGDHHQLPPVIKNMAFQKYSNMEQSLFTRFVRVGVPTVDLDAQGRARASLCNLYNWRYKNLGNLPHVQLLPEFSTANAGLLYDFQLINVEDFQGVGESEPNPYFYQNLGEAEYVVALFMYMCLLGYPADKISILTTYNGQKHLIRDIINRRCGNNPLIGRPNKVTTVDRFQGQQNDYILLSLVRTRAVGHLRDVRRLVVAMSRARLGLYIFARVSLFQNCFELTPAFSQLTARPLHLHIIPTEPFPTTRKNGERPSHEVQIIKNMPQMANFVYNMYMHLIQTTHHYHQTLLQLPPAMVEEGEEVQNQETELETEEEAMTVQADIIPSPTDTSCRQETPAFQTDTTPSETGATSTPEAIPALSETTPTVVGAVSAPAEANTPQDATSAPEETK
B9: GART (protein, UniProt P22102 1-1010)
chain: MAARVLIIGSGGREHTLAWKLAQSHHVKQVLVAPGNAGTACSEKISNTAISISDHTALAQFCKEKKIEFVVVGPEAPLAAGIVGNLRSAGVQCFGPTAEAAQLESSKRFAKEFMDRHGIPTAQWKAFTKPEEACSFILSADFPALVVKASGLAAGKGVIVAKSKEEACKAVQEIMQEKAFGAAGETIVIEELLDGEEVSCLCFTDGKTVAPMPPAQDHKRLLEGDGGPNTGGMGAYCPAPQVSNDLLLKIKDTVLQRTVDGMQQEGTPYTGILYAGIMLTKNGPKVLEFNCRFGDPECQVILPLLKSDLYEVIQSTLDGLLCTSLPVWLENHTALTVVMASKGYPGDYTKGVEITGFPEAQALGLEVFHAGTALKNGKVVTHGGRVLAVTAIRENLISALEEAKKGLAAIKFEGAIYRKDVGFRAIAFLQQPRSLTYKESGVDIAAGNMLVKKIQPLAKATSRSGCKVDLGGFAGLFDLKAAGFKDPLLASGTDGVGTKLKIAQLCNKHDTIGQDLVAMCVNDILAQGAEPLFFLDYFSCGKLDLSVTEAVVAGIAKACGKAGCALLGGETAEMPDMYPPGEYDLAGFAVGAMERDQKLPHLERITEGDVVVGIASSGLHSNGFSLVRKIVAKSSLQYSSPAPDGCGDQTLGDLLLTPTRIYSHSLLPVLRSGHVKAFAHITGGGLLENIPRVLPEKLGVDLDAQTWRIPRVFSWLQQEGHLSEEEMARTFNCGVGAVLVVSKEQTEQILRDIQQHKEEAWVIGSVVARAEGSPRVKVKNLIESMQINGSVLKNGSLTNHFSFEKKKARVAVLISGTGSNLQALIDSTREPNSSAQIDIVISNKAAVAGLDKAERAGIPTRVINHKLYKNRVEFDSAIDLVLEEFSIDIVCLAGFMRILSGPFVQKWNGKMLNIHPSLLPSFKGSNAHEQALETGVTVTGCTVHFVAEDVDAGQIILQEAVPVKRGDTVATLSERVKLAEHKIFPAALQLVASGTVQLGENGKICWVKEE

What follows are binders tested against BAG3 (BCL-2-associated athanogene 3) (human (endogenous in HEK293T)) (UniProt O95817) (assay: affinity purification with mass spectrometry; endogenous BAG3 immunoprecipitated with anti-BAG3 antibody and Protein A/G magnetic beads from HEK293T lysate; cells treated with DMSO (basal) or 10 µM MG132 for 6 h; IgG IP (MG132_IgG) as control; label-free quantification, three biological replicates).

binding, binds:
B1, B2, B3, B4, B5, B6, B7, B8, B9
